Test results from PubChem BioAssay AID2718 (Broad Institute, 2010).
Hit rate of the full screen: of about 320,000 compounds, about 480 (0.15%) were called active. Inconclusive means that the source gave no clear call. Such entries were picked first, then a sample of the others. Cut-off read from the data, not from the text of the source: active = inhibition above about 26% (passing the limit was not always enough); inconclusive = no clear call, values can overlap the other calls.

Protein sequences, listed by entry. Tags and fused reporters are not part of them.
UniProt O15379, whole entry, looked up: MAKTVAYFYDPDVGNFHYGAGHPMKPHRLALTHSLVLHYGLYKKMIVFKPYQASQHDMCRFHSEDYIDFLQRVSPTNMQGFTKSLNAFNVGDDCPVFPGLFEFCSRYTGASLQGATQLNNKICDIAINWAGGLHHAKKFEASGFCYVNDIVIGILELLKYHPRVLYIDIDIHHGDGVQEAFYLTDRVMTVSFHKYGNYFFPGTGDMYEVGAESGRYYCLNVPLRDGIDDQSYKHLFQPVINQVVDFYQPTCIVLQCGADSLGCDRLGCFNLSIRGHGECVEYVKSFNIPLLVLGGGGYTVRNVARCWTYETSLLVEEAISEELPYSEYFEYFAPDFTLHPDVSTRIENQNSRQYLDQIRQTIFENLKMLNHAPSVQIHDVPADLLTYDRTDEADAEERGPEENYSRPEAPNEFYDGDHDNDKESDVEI

Target: Histone deacetylase 3 (Homo sapiens) (UniProt O15379)
Assay: HDAC3 deacetylase inhibitors, primary screen, biochemical, fluorescence, cell-free homogeneous (AID 2718)
Settings: recombinant HDAC3, fluorogenic peptide/trypsin coupled, at 8.3 µM, stronger effect = higher value

SMILES	inhibition
N#CC(=C=[N-])/C=C(\C(=O)c1ccccc1)[n+]1ccccc1	inactive: 2.87%
O=C1CCC(/C=C/c2ccccc2)=NN1Cc1ccccc1Cl	inactive: -13%
CCCCCCC(=O)N(O)C1CC(=O)N(c2ccccc2)C1=O (stereo not drawn)	active: 78.3%
O=C(NCCCN1CCCC1=O)c1cccc(S(=O)(=O)Nc2ccc(Br)cc2)c1	inactive: -2.98%
CCCNc1c(N)c(=O)oc2ccccc12	inconclusive: 24.8%
COc1ccc(C(=O)n2c(-c3ccco3)nc3ccccc32)cc1	active: 43.5%
O=C(O)C1C2C=CC(C2)C1C(=O)NCCCn1ccnc1 (stereo not drawn)	inconclusive: 16.8%
CCOc1cc(S(=O)(=O)Nc2ccc(CC)cc2)ccc1Cl	inconclusive: 20%
CC(C)C[C@H](NC(=O)c1[nH]cnc1C(=O)N[C@@H](C)C(=O)OCc1ccccc1)C(=O)OC(C)(C)C	inconclusive: 36%
O=[N+]([O-])c1cc(-c2csc(NCCc3nc4cc(Cl)c(Cl)cc4n3CCCO)n2)ccc1Cl	inconclusive: -1.15%
COc1cccc(N2CCN(c3ccc4nnc(CCC(=O)N5CCC(C)CC5)n4n3)CC2)c1	inconclusive: 18.6%
CCOC(=O)CSc1n[nH]c(NC(=O)c2ccccc2)n1	inconclusive: 66.5%
CCC(=O)N1c2ccc(S(=O)(=O)CCC(=O)NCCC3=CCCCC3)cc2CC1C (stereo not drawn)	inconclusive: 19.8%
CCOC(=O)c1c(NC(=S)N2CCOCC2)sc2c1CCN(C(=O)OCC)C2	inconclusive: 15.7%
Nc1[nH][nH]c(=O)c1N=Nc1ccc2c(c1)OCO2	inconclusive: 19.8%
Cc1ccccc1NC(=S)N(C)C1(c2ccccc2Cl)CCCCC1=O (stereo not drawn)	inconclusive: 18.8%
CN(C)c1ccc(/C=N/NC(=O)CN(c2cccc(Cl)c2)S(C)(=O)=O)cc1Br	inconclusive: 23.6%
Cc1cc(C(=O)Nc2sc3c(c2C#N)CCCCC3)cs1	inconclusive: 17.5%
CC(C)CNC(=S)N1CCC(NC(=O)c2ccco2)CC1	inconclusive: 19.1%
COC(=O)c1ccccc1NC(=O)c1cc[n+]([O-])cc1	inconclusive: 23.9%
Cc1ccc(-c2nc(N/N=C/c3cccnc3)c3ccccc3n2)cc1	inactive: 12.1%
CCN(CC)CCN(C(=O)c1ccc2ncsc2c1)c1nc2cc3c(cc2s1)OCO3	inconclusive: 25.4%

SMILES	inhibition
O=C(Oc1ccc(=O)n(-c2ccccc2)n1)c1cccc(Cl)c1	active: 44%
N#Cc1ccsc1NC(=O)CN1CCCCCC1	inconclusive: 27.9%
CCOC(=O)CCCCCC(=O)Nc1ccc2c(c1)C(=O)N([C@H](C)CO)C[C@H](C)[C@@H](CN(C)C(=O)Nc1ccc(OC)cc1)O2	inactive: 1.42%
Cc1[nH]c2ccccc2c1/C=N/NC(=O)C1CC1(c1ccccc1)c1ccccc1 (stereo not drawn)	inconclusive: 17.9%
Cc1cccc(C(=O)N2CCCCCC2)c1[N+](=O)[O-]	inconclusive: 17.8%
Cn1c(C(=O)OCC(=O)NCc2cccs2)cc2sccc21	inconclusive: 11.6%
Cc1nc2ccc([N+](=O)[O-])cc2c(=O)n1Cc1ccc(F)cc1	inconclusive: 12.4%
COC(=O)Cn1c(=NC(=O)c2cc(-c3cccs3)nc3ccccc23)sc2cc(S(N)(=O)=O)ccc21	inactive: -9.85%
CCN(CC(=O)Nc1ccccc1C(F)(F)F)C(=O)CN1C(=O)NC(C)(c2ccccc2)C1=O (stereo not drawn)	inactive: 0.689%
Cn1nc(-c2ccccc2)cc1NC(=O)Nc1ccc(C(C)(C)C)cc1	inactive: 20.3%
Cc1c(O)cccc1C(=O)N[C@@H](CSc1ccccc1)[C@H](O)CN1C[C@H]2CCCC[C@H]2C[C@H]1C(=O)NC(C)(C)C	inconclusive: 24.5%
CC(C)C[C@H](NC(=O)N1CCn2c1nc1ccccc12)C(=O)NC1CCCCC1	inconclusive: 15.6%
CCOC(=O)c1c(C)n(C)c2ccc(O)c(CN3CCN(C)CC3)c12	inactive: -1.86%
O=C(O)c1ccccc1C(=O)NCc1c(Cl)cccc1Sc1ccc(Cl)cc1	inactive: -5.97%
CC(Oc1ccc2c(-c3ccccc3)cc(=O)oc2c1)C(=O)O (stereo not drawn)	inconclusive: 19.3%
CCC1CCCCN1C(=O)c1cc(-c2ccc(Cl)c(Cl)c2)on1 (stereo not drawn)	inconclusive: 11.6%
Cc1ccc(-n2nnc3ccccc3c2=O)cc1C	inconclusive: 16.7%
COC(=O)Nc1ccc2c(c1)N(C(=O)CCN1CCOCC1)c1ccccc1S2	inactive: 1.16%
CC(C)(C)OC(=O)NCCCC[C@H](NC(=O)c1[nH]cnc1C(=O)Nc1ccc(CNC(=O)OC(C)(C)C)cc1)C(=O)OC(C)(C)C	inconclusive: 21.7%
Cc1cccc(NC(=O)c2cccc3c2-c2ccccc2C3=O)n1	inconclusive: 22.1%
N#CC1=C2SCN(Cc3ccccc3)CN2C(=O)CC1c1ccccc1F (stereo not drawn)	inconclusive: 26.9%
CCC(C)C(NC(=O)c1ccccc1NC(=O)c1ccc(C)cc1)C(=O)O (stereo not drawn)	inconclusive: 26.6%

SMILES	inhibition
Cc1ccc2cc(/C=N/NC(=O)[C@H]3C[C@@H]3c3ccccc3)c(Cl)nc2c1	inactive: -1.68%
O=C(NCc1ccco1)C1CCCN1S(=O)(=O)c1ccc2ccccc2c1 (stereo not drawn)	inconclusive: 18.6%
CC(C)(C)OC(=O)[C@H](Cc1ccccc1)NC(=O)c1nc[nH]c1C(=O)NCC(=O)OCc1ccccc1	inconclusive: 25.2%
Cc1c(C(=O)O)sc2ncnc(N3CCCCC3C)c12 (stereo not drawn)	inconclusive: 29.6%
Cc1ccc(-c2ccc(/C=N\n3cnnc3)o2)c(Br)c1	inconclusive: 14.5%
O=C(c1ccc(CNS(=O)(=O)c2ccc(Br)cc2)cc1)N1CCCCCC1	inconclusive: 13.2%
COc1ccc(/C(C)=N/NC(=O)CNC(=O)/C=C\c2ccccc2)c(OC)c1	inactive: 7.57%
CCOC(=O)C(=CNNc1cccc(Cl)c1)C(=O)OCC	inactive: 7%
COc1ccc(N2C(=O)CCC2=O)cc1	inactive: -3.49%
COC(=O)CSc1cc(C(=O)c2nccn2C)c2ccccc2n1	inconclusive: 29.2%
Cc1ccc(C(=O)c2cc([N+](=O)[O-])ccc2N2CCN(C)CC2)cc1	inactive: 2.74%
Nc1cccc(Nc2nc(OC(C(F)(F)F)C(F)(F)F)nc(OC(C(F)(F)F)C(F)(F)F)n2)c1	active: 49.3%
O=C(O)c1ccccc1N/N=C/c1c(Sc2nnnn2-c2ccccc2)nc2ccccn2c1=O	inactive: -1.3%
Cc1ccc(C(=O)N/C(=C/c2cccnc2)C(=O)N2CCCCCC2)cc1	inactive: -3.86%
CC(=O)N1CCc2cc(S(=O)(=O)NCCCN3CCC(C)CC3)ccc21	inconclusive: 17.1%
CC(C)(C)c1csc(NC(=O)c2c(F)c(F)c(F)c(F)c2F)n1	inconclusive: 15.4%
O=C1CC(c2ccsc2)Sc2ccccc2N1 (stereo not drawn)	inconclusive: 7.71%
Cc1c(Cl)c([N+](=O)[O-])nn1CC(=O)NC(C)c1ccccc1 (stereo not drawn)	inconclusive: 16.4%
CC(C)=CCC/C(C)=C/CC(C)(C)CNCCN1CCNCC1	inconclusive: 30.8%
COc1ccc(Cl)cc1NC(=O)C(C)OC(=O)C1=NNC(=O)CC1 (stereo not drawn)	inconclusive: 13.8%
Cc1ccc(-c2noc(COc3ccccc3C)n2)cc1	inactive: 6.44%
CN=c1scc(-c2cccs2)n1/N=C/c1ccc(O)c(O)c1O	inactive: 3.31%

SMILES	inhibition
C/C(Cl)=C\Cn1c(Nc2ccc(C)cc2)nc2c1c(=O)n(C)c(=O)n2C	inconclusive: 24.9%
CCCC(=O)Nc1cc(-c2nc3ncccc3o2)ccc1Cl	inactive: -2.8%
O=[N+]([O-])/C(C(Cl)=C(Cl)Cl)=C(/Sc1ccccc1)N1CCCCC1	inactive: 5.52%
Cc1noc(C)c1NC(=O)Nc1cccc2c1O[C@H](CN(C)S(C)(=O)=O)[C@@H](C)CN([C@H](C)CO)C2=O	inconclusive: 12.3%
O=S(=O)(c1ccc(Br)s1)N1CCN(c2ncccn2)CC1	inconclusive: 20%
Fc1ccc(NC(=S)Nc2ccc(F)c(Cl)c2)cc1Cl	inconclusive: 26.4%
Cc1ccc(C(=O)n2cnnc2N)cc1	active: 44.5%
Cn1c(=O)n(C)c2cc(S(=O)(=O)NCCO)ccc21	inconclusive: 25.3%
Cc1ccc(NS(=O)(=O)c2ccc(NC(=O)CSc3ccc(Cl)cc3)cc2)c(C)c1	inconclusive: 17.8%
CC(O)[C@H]1CNCCN1CC1(c2ccccc2)CC1 (stereo partly drawn)	inconclusive: 17.8%
Cn1c(C(=O)N2CCCC(C(=O)NCCN3CCOCC3)C2)cc2sccc21 (stereo not drawn)	inactive: -5.74%
CCS(=O)(=O)c1nc(S(=O)(=O)c2ccc(Cl)cc2)c(N2CCN(CCO)CC2)s1	inconclusive: 21.2%
O=C(c1cccc(S(=O)(=O)N2CCCC2)c1)N1CCCC(C(F)(F)F)C1 (stereo not drawn)	inconclusive: 15%
O=C(c1ccc(F)cc1)N1CCCC(c2nc(-c3cccs3)no2)C1 (stereo not drawn)	inconclusive: 24.4%
CCOC(=O)c1ccc(OC(=O)CCCCCN=C(N)N)cc1	active: 92.8%
COc1ccc(CCNC(=O)C2CCN(S(C)(=O)=O)CC2)cc1	inconclusive: 10.4%
NNC(=O)CN1C(c2ccccc2Br)=Nc2ccc(Br)cc2C1c1ccccc1 (stereo not drawn)	inconclusive: 16.5%
CCc1ccc(CCC(=O)Nc2ccc(Cl)cc2)o1	inactive: 1.6%
O=S(=O)(NCCN1CCOCC1)c1ccc2c(c1)OCCO2	inconclusive: 16.3%
Cc1cc(OCC(=O)NCCCN2CCOCC2)c2c(C)cc(=O)oc2c1	inactive: -31.5%
COc1ccccc1CC(=O)NCCN1CCCCC1	inactive: -9.7%
CC(=O)Nc1cccc(S(=O)(=O)N2CCCCCC2)c1	inconclusive: 10.8%
